Test results taken from PubChem BioAssay AID2685 (National Center for Advancing Translational Sciences (NCATS), 2010).
The other results are listed elsewhere or left out. Shown are side measurements of this screen, not its main read-out; they come without a call. Most of these compounds were active or inconclusive in the main read-out, so they are no random draw. Potencies come from curve fits of mixed quality, noted in brackets.

Experiment: qHTS Assay for Lipid Storage Modulators in Drosophila S3 Cells;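 as to cell number change: cells counted by Cell Tracker Red CMTPX staining in the red channel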
Conditions: BODIPY lipid droplet fluorescence, 18-24 h; for cell number change: measured here: cell count max response, cells fed with added oleic acid
In short: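 Laser-scanning cytometry quantifies lipid droplet accumulation (500–530 nm total intensity; droplet/cell object ratio) in oleic acid-fed (400 uM added) Drosophila S3 cells treated with a concentration series. 20 uM Triacsin C defined 100% inhibition.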

[1] = measured here: cell number channel AC50, cells fed with added oleic acid
[2] = measured here: lipid fluorescence (Fed channel) AC50, cells fed with added oleic acid

Row | Structure (SMILES) | cell number change [%] | AC50 [1] | AC50 [2]
1 | CC(C)/C(=N\NC(=O)Nc1ccccc1)c1ccccc1 | 59.2 | 9.2 µM [rising, partial curve] | 18.4 µM [rising, single point]
2 | Cc1ccc(S(=O)(=O)Nc2c(NC3CCCCC3)c3ccccc3oc2=O)cc1C | -50.8 | 29.1 µM [falling, single point] | 29.1 µM [falling, single point]
3 | CCN(CC)CCNS(=O)(=O)c1ccc2[nH]cc(C(=O)O)c(=O)c2c1 | -5.97 | – | 25.9 µM [falling, partial curve]
4 | Cc1ccc(S(=O)(=O)N2CCN(C(=O)CN3C(=O)NC4(CCOc5ccccc54)C3=O)CC2)cc1 (configuration not stated) | 37 | 23.1 µM [rising, single point] | 0.082 µM [falling, full curve, poor fit]
5 | CC1CCC2(CC1)NC(=O)N(CC(=O)NCCc1c[nH]c3ccccc13)C2=O (configuration not stated) | 0.154 | – | –
6 | COc1ccc(C(=O)NCc2ccncc2)cc1S(=O)(=O)N1CCOCC1 | -8.96 | – | 6.51 µM [falling, single point]
7 | Cc1ccc(/C(N)=N/OC(=O)Cc2cccc3ccccc23)cc1 | – | 0.58 µM [rising, full curve] | 0.461 µM [rising, partial curve, poor fit]
8 | Cc1ccc(NC(=O)Nc2cnccn2)c(C)c1 | 8.42 | – | 29.1 µM [falling, single point]
9 | CCOc1cc(/C=N/n2cnnc2)ccc1OCC(=O)Nc1ccccc1OC | 14.5 | – | 2.06 µM [rising, full curve]
10 | CC(C)C(O)(C#CCN1CCCCC1)c1ccccc1 (configuration not stated) | -50.5 | 0.651 µM [falling, full curve] | 29.1 µM [falling, single point]
11 | CCc1ccc(CNC(=O)c2ccc3nc(C4CCCCC4)oc3c2)nc1 | -19.7 | – | 32.6 µM [falling, partial curve]
12 | O=C(Nc1cccnc1)c1ccc(S(=O)(=O)N2CCCCCC2)cc1 | 5.9 | – | 0.082 µM [falling, full curve, poor fit]
13 | Cc1cc(C(=O)OCC(=O)Nc2cccnc2Cl)c2ccccc2n1 | 31 | 0.00461 µM [rising, full curve] | 0.00461 µM [rising, full curve, poor fit]
14 | Cc1ccc2cccc(OCc3nnc(SCC(=O)O)n3C)c2n1 | -39.8 | 11.6 µM [falling, partial curve, poor fit] | 10.3 µM [falling, partial curve, poor fit]
15 | CCSCc1nc2ccccn2c1Br | -41.7 | 0.58 µM [falling, full curve] | 0.651 µM [falling, partial curve]
16 | O=C1/C(=C\c2ccc(C(F)(F)F)cc2)CSc2sccc21 | -56.1 | 29.1 µM [falling, single point] | –
17 | Cc1ccc(S(=O)(=O)N(C)C)cc1NC(=O)COC(=O)C1=COCCO1 | -0.535 | – | 6.51 µM [rising, single point]
18 | CCOC(=O)Cn1nc(C)cc1NC(=O)c1cc(OC)c(OC)c(OC)c1 | 24 | – | 29.1 µM [rising, single point]
19 | COc1cc(CSc2nnnn2-c2ccc(C)cc2)cc(OC)c1OC | 0.167 | – | 29.1 µM [falling, partial curve]

Row | Structure (SMILES) | cell number change [%] | AC50 [1] | AC50 [2]
20 | COC(=O)c1c(C)[nH]c(C(=O)OC(C)C(=O)N(C)C2CCCCC2)c1C (configuration not stated) | – | 2.59 µM [rising, partial curve, poor fit] | 1.46 µM [rising, partial curve, poor fit]
21 | Cc1ccnc2c(N3C(=O)C4C5C=CC(C5)C4C3=O)cccc12 (configuration not stated) | 17 | 2.59 µM [rising, single point] | 8.2 µM [rising, partial curve, poor fit]
22 | O=C(Nc1ccccn1)C1CCN(c2ncnc3c2nc2n3CCCCC2)CC1 | 3.58 | – | 0.184 µM [falling, full curve, poor fit]
23 | CSCC(O)Cn1ncc2ccccc2c1=O (configuration not stated) | 1.09 | – | 0.058 µM [falling, full curve]
24 | Cc1ccccc1NC(=O)C(=O)NNC(=O)COc1ccc2ccccc2c1 | 12.6 | – | 29.1 µM [rising, single point]
25 | Cc1ccc(Nc2nc(-c3cccnc3)nc3ccccc23)cc1 | -45.5 | 29.1 µM [falling, single point] | 29.1 µM [falling, single point]
26 | O=C(CP(=O)(O)CC(=O)c1ccccc1)c1ccccc1 | -11.2 | – | 29.1 µM [falling, single point]
27 | O=c1cc(-c2ccccc2Cl)oc2ccc([N+](=O)[O-])c(O)c12 | 11.8 | – | 0.058 µM [rising, full curve, poor fit]
28 | COc1cc(C)c(C)cc1S(=O)(=O)NC1CC(C)(C)NC(C)(C)C1 | 1.4 | – | 25.9 µM [rising, single point]
29 | Cc1ccn(CC(=O)N2N=C(C(F)F)CC2(O)C(F)F)n1 (configuration not stated) | -26.5 | 3.66 µM [falling, full curve, poor fit] | 3.66 µM [falling, full curve]
30 | O=C(CSC1=NS(=O)(=O)c2cc(Cl)ccc2N1)Nc1ccccc1C(F)(F)F | – | 6.51 µM [rising, single point] | –
31 | COc1ccnc(N2CCN(c3ccccc3)CC2)c1C#N | – | – | 6.51 µM [rising, single point]
32 | CCc1nnc(NC(=O)CN2C(=O)/C(=C/c3cc(OC)c(OC)c(OC)c3)SC2=S)s1 | 6.04 | – | 18.4 µM [rising, single point]
33 | O=C(NCCc1ccccc1)C1CCN(S(=O)(=O)c2cccc3nonc23)CC1 | -22.4 | 0.13 µM [falling, full curve, poor fit] | 5.17 µM [falling, partial curve, poor fit]
34 | Cc1ccc(-c2ccc(/C=N\n3cnnc3)o2)c(Br)c1 | 14.9 | 0.326 µM [rising, full curve, poor fit] | –
35 | c1ccc(C(Cc2nc(-c3ccncc3)no2)c2ccccc2)cc1 | 34 | 14.6 µM [rising, single point] | –
36 | COc1cc(N)c(Cl)cc1C(=O)OCC(=O)c1cccs1 | -6.58 | – | 5.62 µM [rising, single point]
37 | COc1cc(NC(=O)C2=C(N3CCOCC3)/C(=C\c3ccc(Cl)cc3Cl)CC2)cc(OC)c1OC | 8.7 | – | 0.461 µM [rising, partial curve]
38 | O=C(CN1C(=O)c2ccccc2C1=O)Nc1ccccc1C(F)(F)F | 53.5 | 23.1 µM [rising, single point] | –

Row | Structure (SMILES) | cell number change [%] | AC50 [1] | AC50 [2]
39 | S=C(NC1CCCCC1)N1CCN(c2ccccn2)CC1 | 8.25 | – | 6.51 µM [falling, single point]
40 | Cn1cccc1C(=O)OCC(=O)N1CC(=O)Nc2ccccc21 | 3.54 | – | –
41 | Cc1ccc(S(=O)(=O)N2CCC(=O)N(CCOCc3cccc(F)c3)CC2)cc1 | 13.2 | – | 0.461 µM [rising, full curve, poor fit]
42 | Cc1cc(C)cc(NC(=O)CN2C(=O)NC(C)(c3ccccc3)C2=O)c1 (configuration not stated) | 39.3 | – | 29.1 µM [rising, single point]
43 | COc1ccc(C(=O)Nc2nnc(-c3ccccc3)s2)cc1 | 7.97 | – | 29.1 µM [rising, single point]
44 | CCOC(=O)c1cn[nH]c1N | 17.8 | – | 29.1 µM [rising, partial curve, poor fit]
45 | CC(C)CCNC(=O)c1c[nH]c2ccc(S(=O)(=O)N3CCOCC3)cc2c1=O | -16.5 | – | 20.6 µM [falling, single point]
46 | CCCCOC(=O)c1ccc(NC(=O)c2cc(Cl)ccc2OC)cc1 | – | – | 29.1 µM [rising, single point]
47 | CCOc1ccc(N(CC(=O)NCCSCc2ccc(Cl)cc2)S(C)(=O)=O)cc1 | – | – | 14.6 µM [falling, partial curve]
48 | COC(=O)Cc1cc(OC)c(OC)cc1Cc1cc(OC)c(OC)cc1CC(=O)OC | – | – | 0.00517 µM [falling, full curve, poor fit]
49 | CCCCCOC(=O)Nc1ccc(S(=O)(=O)Nn2cnnc2)cc1 | -20.2 | – | 0.517 µM [falling, full curve]
50 | Cc1nnc(Sc2cc(NCCCO)c([N+](=O)[O-])c3nonc23)s1 | -129 | 29.1 µM [falling, partial curve, poor fit] | 29.1 µM [falling, single point]
51 | COC(=O)COc1ccc(S(=O)(=O)NCc2ccccn2)cc1 | 3.04 | – | 3.66 µM [rising, full curve]
52 | CN(Cc1ccncc1)C1CC(=O)N(c2ccc(F)cc2)C1=O (configuration not stated) | -40.8 | 29.1 µM [falling, single point] | –
53 | Cc1ccc(CSc2nc3c(c(=O)[nH]2)CCC3)cc1 | – | 2.31 µM [falling, partial curve] | –
54 | COc1cc(NC(=O)CCNC(=O)Cn2cnc3ccccc3c2=O)cc(OC)c1OC | -21.4 | 3.66 µM [falling, full curve, poor fit] | 20.6 µM [falling, partial curve]
55 | CCCOc1cc(C)c(S(=O)(=O)NC2CC(C)(C)NC(C)(C)C2)cc1C | -10.3 | – | 0.00517 µM [falling, full curve, poor fit]
56 | O=C(c1ccc(CNS(=O)(=O)c2ccc(Br)cc2)cc1)N1CCCCCC1 | -17.7 | – | 16.4 µM [falling, single point]

Full records, looked up by structure.
Cc1ccc(/C(N)=N/OC(=O)Cc2cccc3ccccc23)cc1 is entered as AC50 [1]: 0.58 µM [rising, full curve]; AC50 [2]: 0.461 µM [rising, partial curve, poor fit]
O=C(CN1C(=O)c2ccccc2C1=O)Nc1ccccc1C(F)(F)F is entered as cell number change [%]: 53.5; AC50 [1]: 23.1 µM [rising, single point]
